Assay results published in the supplement of paper PMC3334620.
Over roughly 33,000 sequences, “E-score (-0.5 to 0.5)” has its median near -8e-05; the highest 2% begin near 0.23. Some of the results follow.

Each sequence was assayed against T1, Nrg2 (UniProt P38082) (assay: PBM E-score (8-mer binding enrichment) (E-score (-0.5 to 0.5)); higher = stronger / more preferred TF binding). Conditions: protein concentration: 100 nM; construct: GST-full length.
T1 sequence: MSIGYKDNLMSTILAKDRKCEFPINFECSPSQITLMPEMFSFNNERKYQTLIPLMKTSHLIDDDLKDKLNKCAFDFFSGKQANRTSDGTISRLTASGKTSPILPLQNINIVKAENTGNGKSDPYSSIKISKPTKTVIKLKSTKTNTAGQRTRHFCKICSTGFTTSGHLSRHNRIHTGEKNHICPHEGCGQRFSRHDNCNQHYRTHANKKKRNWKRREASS
Summary of the method: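 PURExpress in vitro transcription/translation supplied GST-tagged yeast transcription factors, either full-length or DNA-binding domain. Applied at about 100-200 nM to universal all-10-mer Agilent arrays double-stranded by primer extension, the bound protein was detected with fluorescent anti-GST. E-scores, modified Wilcoxon-Mann-Whitney statistics, were given by the Universal PBM Analysis Suite to ungapped eight-base words pooled with their reverse complements after masliner normalisation.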

Compared with GGTAGAAA, GCATCTCC is higher in “PBM E-score” value: -0.11 for the first, -0.0431 for the second.

Going from CGCCAACC to AGCGAAAC, the “PBM E-score” value rises from -0.155 to 0.102.

Compared with ACACTCTC, CTTTTTCC is lower in “PBM E-score” value: 0.104 for the first, 0.0458 for the second.

Going from CCGCCACA to AGATATAT, the “PBM E-score” value rises from 0.0604 to 0.0823.

Compared with ATTGATCA, AGTGACCC is lower in “PBM E-score” value: 0.0745 for the first, 0.0583 for the second.

First: CGCGATTA
Second: CCCAAACA
The “PBM E-score” value of the first is higher: 0.216 for the first, 0.211 for the second.

First: AATATCGC
Second: GCGTGTAC
The “PBM E-score” value of the first is higher: 0.104 for the first, -0.0885 for the second.

Compared with CCGTTGTA, CCACGCGC is lower in “PBM E-score” value: 0.201 for the first, -0.0713 for the second.

First: GAGTTTCA
Second: GATTTCGC
The “PBM E-score” value of the first is lower: 0.00699 for the first, 0.281 for the second.

Going from AGTACGTC to ATAGATCG, the “PBM E-score” value falls from 0.0567 to 0.0393.

Compared with CACGCAGC, AATACTTG is higher in “PBM E-score” value: -0.0258 for the first, 0.0671 for the second.

Going from CTCTAAAA to CAAGTTAG, the “PBM E-score” value rises from -0.195 to 0.0709.

Compared with GCAGCTAC, CCCATGCG is lower in “PBM E-score” value: -0.00081 for the first, -0.177 for the second.

Compared with TATATCAA, CGCCTAAA is lower in “PBM E-score” value: 0.149 for the first, -0.134 for the second.

Going from AGGTCAGC to AAGATTTA, the “PBM E-score” value rises from -0.135 to 0.00464.

Compared with GAGGACAA, CCCTGACA is higher in “PBM E-score” value: 0.0114 for the first, 0.288 for the second.

First: CCCCGCGA
Second: ATAGCCCA
The “PBM E-score” value of the first is higher: 0.0863 for the first, 0.0729 for the second.

Going from CAATTTGA to TACAACGA, the “PBM E-score” value falls from 0.0984 to 0.0238.

Compared with CGGAGGTC, ACACGCTG is lower in “PBM E-score” value: -0.00667 for the first, -0.109 for the second.

Compared with CGAAACCC, ATAAGCTC is lower in “PBM E-score” value: 0.103 for the first, -0.0927 for the second.

Going from ACTTCGCT to CATAGTTA, the “PBM E-score” value falls from 0.0287 to -0.0635.

Going from CTGTCGGC to AGCGTGGC, the “PBM E-score” value rises from -0.0375 to 0.0396.

First: AATCTATG
Second: GATTTGAC
The “PBM E-score” value of the first is higher: 0.0819 for the first, 0.0597 for the second.

First: CCAGCTGC
Second: TATGGTGA
The “PBM E-score” value of the first is lower: -0.0958 for the first, -0.0798 for the second.

Going from CGATCCCG to CTCCGCCA, the “PBM E-score” value falls from -0.0843 to -0.0925.

First: GAGGGGCC
Second: AATATACT
The “PBM E-score” value of the first is lower: -0.0201 for the first, 0.0619 for the second.

Going from AGTAGTAG to CCTTACAA, the “PBM E-score” value falls from -0.0615 to -0.0884.

First: ACTTGCCC
Second: GGGACCAA
The “PBM E-score” value of the first is lower: -0.0844 for the first, 0.138 for the second.

Compared with GCTCAGCC, AAGGATTC is higher in “PBM E-score” value: -0.191 for the first, -0.124 for the second.

Going from CAAACTAA to ACCTTCCC, the “PBM E-score” value falls from 0.184 to -0.156.

Compared with CTAGCACC, AAGTTCAG is lower in “PBM E-score” value: 0.0733 for the first, -0.0274 for the second.

Going from AGCACTTG to GACTGGTA, the “PBM E-score” value rises from -0.164 to 0.0862.

First: AAACGCAG
Second: AGTTAAGA
The “PBM E-score” value of the first is lower: -0.0508 for the first, 0.0745 for the second.

Going from CGCTGACC to GACCATAC, the “PBM E-score” value falls from 0.0434 to -0.125.

Going from GGCGACCC to ACGTTGGC, the “PBM E-score” value falls from -0.0112 to -0.247.

Compared with CGTATTGC, AGCAGAAC is higher in “PBM E-score” value: -0.0307 for the first, 0.0196 for the second.

Compared with CGGGAATA, GGGGTTAC is lower in “PBM E-score” value: 0.0776 for the first, -0.296 for the second.

Compared with CTTGGACC, AGTCGTGA is lower in “PBM E-score” value: -0.0417 for the first, -0.076 for the second.

Going from CGGGCGAC to CTATGTGC, the “PBM E-score” value rises from -0.278 to 0.0174.

First: ACTAGAGA
Second: AGCATGCG
The “PBM E-score” value of the first is lower: -0.127 for the first, 0.00586 for the second.

Going from CCGGTCTC to AGTACTCA, the “PBM E-score” value rises from -0.13 to -0.0331.

Going from CCGGGATA to CGCCGTCC, the “PBM E-score” value falls from -0.0524 to -0.138.

First: GGGGGTTA
Second: GTACCGGA
The “PBM E-score” value of the first is lower: -0.432 for the first, 0.0409 for the second.

Going from ACAAGGAA to CTACTATA, the “PBM E-score” value rises from 0.0647 to 0.143.

Compared with GCGCGCAA, AAGTTGGT is lower in “PBM E-score” value: 0.201 for the first, 0.136 for the second.

Compared with ACAATCCC, CAAGTGTA is lower in “PBM E-score” value: 0.0851 for the first, -0.0141 for the second.

Going from GGGACATA to CCTTGTCG, the “PBM E-score” value falls from 0.193 to -0.0281.

Going from ATCTCATG to AGGGCTCC, the “PBM E-score” value falls from 0.0868 to -0.233.

Compared with AACTCAAG, CGAAAGCG is lower in “PBM E-score” value: -0.0395 for the first, -0.178 for the second.

First: ACTTGGCG
Second: GCGACCCC
The “PBM E-score” value of the first is lower: -0.138 for the first, -0.0239 for the second.

First: AGTTGGTA
Second: AAGAATAG
The “PBM E-score” value of the first is higher: 0.0995 for the first, -0.0208 for the second.

Going from AATGGAAC to ACCAGAGC, the “PBM E-score” value falls from 0.108 to -0.00553.

Compared with CTACATGC, AAGGAGCT is lower in “PBM E-score” value: -0.0136 for the first, -0.368 for the second.

First: GTCGTATA
Second: ACGGCAAG
The “PBM E-score” value of the first is lower: 0.00175 for the first, 0.0648 for the second.

Going from CCAGACGA to ATCTGGCA, the “PBM E-score” value falls from 0.0228 to -0.0821.

First: ACTTGGAA
Second: AATGCCAC
The “PBM E-score” value of the first is lower: -0.0605 for the first, 0.00346 for the second.

First: GCAAAGAC
Second: AACAGACG
The “PBM E-score” value of the first is lower: -0.0856 for the first, -0.0618 for the second.

Compared with AAACTTCG, GCATTCAC is lower in “PBM E-score” value: 0.0808 for the first, 0.0117 for the second.

First: ACATCGGC
Second: AAGAATAA
The “PBM E-score” value of the first is higher: 0.0304 for the first, -0.022 for the second.

First: ACAATAGT
Second: CATCGGAG
The “PBM E-score” value of the first is higher: 0.193 for the first, -0.351 for the second.

First: CTGATCAA
Second: CCAGCAGA
The “PBM E-score” value of the first is lower: 0.0271 for the first, 0.096 for the second.

Compared with CTGCAAGC, GAATAGAC is lower in “PBM E-score” value: -0.154 for the first, -0.185 for the second.

Going from GTTGATCA to CCAAAAGG, the “PBM E-score” value falls from 0.123 to -0.172.

Going from ACATAATA to CCTCAATC, the “PBM E-score” value falls from 0.295 to 0.0495.

Compared with ACTGATGA, GAAACCGA is higher in “PBM E-score” value: 0.0842 for the first, 0.0852 for the second.

First: GTGGGTGA
Second: AATCTAGG
The “PBM E-score” value of the first is higher: 0.0988 for the first, 0.0956 for the second.

First: AGCGTGTA
Second: ACAGTGTG
The “PBM E-score” value of the first is lower: -0.107 for the first, 0.0482 for the second.

Compared with GGAATTCA, ACAAAACT is lower in “PBM E-score” value: 0.138 for the first, 0.1 for the second.

Going from CAAAAGCG to TGACCTCA, the “PBM E-score” value falls from -0.00436 to -0.167.

Going from CACGGGGG to GGAGTACA, the “PBM E-score” value rises from -0.32 to -0.0248.

First: CAATGCTG
Second: CTTGGCAA
The “PBM E-score” value of the first is higher: -0.0229 for the first, -0.133 for the second.

First: AATTAAGT
Second: CAGATCTG
The “PBM E-score” value of the first is lower: 0.062 for the first, 0.0937 for the second.

Compared with AATTCAGA, CGACAAAC is lower in “PBM E-score” value: 0.0972 for the first, -0.0817 for the second.

First: ACTGGAGC
Second: CGTCGTAC
The “PBM E-score” value of the first is lower: -0.282 for the first, -0.048 for the second.

First: GGCACGAA
Second: CGTTAGCC
The “PBM E-score” value of the first is higher: 0.105 for the first, -0.116 for the second.

First: TAAGCGGA
Second: ACGCCACT
The “PBM E-score” value of the first is higher: -0.0382 for the first, -0.0795 for the second.

Compared with CCCAACCC, CAGAACTA is higher in “PBM E-score” value: 0.0314 for the first, 0.0823 for the second.

First: ATCCAATA
Second: AGTGTACG
The “PBM E-score” value of the first is higher: 0.0988 for the first, 0.00599 for the second.

First: AGCTACCG
Second: CCGTTCTC
The “PBM E-score” value of the first is lower: -0.163 for the first, -0.0977 for the second.

Going from CGCAGCCG to AGAGGGTA, the “PBM E-score” value rises from -0.21 to -0.0204.

Compared with AACTGCTG, AAATAGGA is higher in “PBM E-score” value: -0.181 for the first, 0.105 for the second.

First: CACTGACG
Second: GATAATTA
The “PBM E-score” value of the first is lower: -0.0328 for the first, 0.0635 for the second.

Going from CGCTCAAA to CCCCGGAG, the “PBM E-score” value falls from 0.115 to -0.152.

Compared with AATTCTCT, GTCACAAA is higher in “PBM E-score” value: -0.146 for the first, -0.132 for the second.

Compared with GCCGCTCC, ACACCTGT is higher in “PBM E-score” value: -0.136 for the first, -0.062 for the second.

Compared with CAGTTTGA, CGCTGCAA is lower in “PBM E-score” value: 0.0957 for the first, -0.011 for the second.
